Test results taken from PubChem BioAssay AID493014 (National Center for Advancing Translational Sciences (NCATS), 2011).
In all, about 340,000 compounds went through this assay and about 170 (0.05%) were called active. This list was built around the results that the source calls inconclusive (neither active nor inactive); the mix of calls is not that of the screen. The call rests on the fitted dose curve; in most records, active means well fitted inhibition curve with a large enough effect in the signal ratio, with a control signal flat (not every such curve was filed as active); inconclusive means small, poorly fitted or top-dose-only effect, or effect the other way, or a change in a side signal; inactive means flat fitted curve, though single readings scatter; the % refers to the signal ratio. Potencies beside an inconclusive call are fits to weak or partial responses and may not hold up.

Experiment: qHTS Assay to Find Inhibitors of Chronic Active B-Cell Receptor Signaling;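 on activity change, negative = inhibition: plate controls were basal doxycycline-induced cells for no effect and cells given 10 µM MG132 for full effect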
Settings: ABC-DLBCL IkBa-CBG/CBR reporter, luminescence ratio (green luciferase fused to IkBa over red control in TMD8 lymphoma cells), 4 h; activity change, negative = inhibition: at 46.1 µM (top of the series) unless noted
In short: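 Compounds up to 46 uM were incubated four hours with TMD8 cells whose green CBG68 luciferase is fused to IkappaBalpha; red CBR luminescence normalised the signal, and concentration-effect curves were fitted to fusion, red and ratio data.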
Potency means the concentration at half of the fitted maximal effect.

| Compound | activity change, negative = inhibition | Potency |
| --- | --- | --- |
| C=CCNC(=O)c1onc(CSc2ccc(Cl)cc2)c1C(=O)NCC=C | inconclusive: 3.1% |  |
| Cc1nn(-c2ccccc2)c2nc(N)c(C#N)c(-c3ccc(F)cc3)c12 |  | inconclusive: 18.4 µM [rising, single point] |
| C=CC[n+]1c(C)csc1Nc1ccc(C)cc1 | inconclusive: 5.98% |  |
| COc1ccc(-n2c(=O)c3c4c(sc3n(CC(=O)NC3CCCC3)c2=O)CCCC4)c(OC)c1 | inconclusive: 13.6% |  |
| CCOc1cccc2cc(C(C)=O)oc12 | inconclusive: 0.711% |  |
| C=CCSc1nc2ccccc2n2cnnc12 |  | inconclusive: 17.8 µM [falling, partial curve, poor fit] |
| CCC(C)c1ccc(O)c(NC(=O)c2ncn[nH]2)c1 (stereo not drawn) | inconclusive: 11.8% |  |
| O=[N+]([O-])c1cc(/C=N/N2CCOCC2)cs1 | inconclusive: 1.84% |  |
| COc1ccc(/C(C)=N/NC(=O)c2nc(C)cc(C)n2)cc1 | inconclusive: -21.1% |  |
| O=C(CSc1ccc([N+](=O)[O-])cc1)Nc1cccc(S(=O)(=O)N2CCOCC2)c1 | inactive |  |
| CC(C(=O)Nc1ccc(C#N)cc1)N(C)CC(=O)Nc1cccc(F)c1 (stereo not drawn) | inactive |  |
| COc1ccccc1Cn1c(SCC(=O)C(C)(C)C)nc2ccccc2c1=O | inconclusive: 28.4% |  |
| O=c1cc(CN2CCN(S(=O)(=O)c3ccccc3[N+](=O)[O-])CC2)nc2sccn12 | inconclusive: -2.63% |  |
| Cc1cc(C(=O)CN2C(=O)C(=O)N(C3CCCC3)C2=O)c(C)n1CCc1ccc(F)cc1 | inconclusive: 6.45% |  |
| CC(C)Cc1nc2sc3c(NCc4ccco4)ncnc3c2c2c1COC(C)(C)C2 | inconclusive: 2.48% |  |
| CCNC(=O)C1CCN(Cc2cc3ccccc3n2Cc2ccc(C)cc2)CC1 | inactive |  |
| Cc1cccn2c(=O)c3cc(C(=O)NCCCN4CCCC4=O)n(C)c3nc12 | inactive |  |
| CCOC(=O)N1CCN(C(=O)CSc2nnc(Cn3c(=O)sc4ccccc43)n2C)CC1 | inconclusive: 1.25% |  |
| COc1cc(/C=N/OCC(=O)Nc2cc(C)cc(C)c2)ccc1OCc1ccc(Cl)cc1 | inconclusive: 5.25% |  |
| COc1cccc(N2CCN(S(=O)(=O)c3ccc(-c4coc(C)n4)cc3)CC2)c1 | inconclusive: 10.7% |  |
| CCSc1nc2ccccc2n1CCC(=O)O | inconclusive: 15.2% |  |
| Cc1cccn2c(NCc3ccc4c(c3)OCO4)c(-c3ccc(O)cc3)nc12 | inconclusive: -11.4% |  |
| O=C1COc2ccc(OCc3ccc(F)cc3)cc21 | inconclusive: 5.29% |  |
| COc1ccc(Cl)cc1C(=O)NCCS(=O)(=O)N1CCN(c2ccccc2F)CC1 | inactive |  |
| C=CCn1c(O)c(N=NC(=S)Nc2ccccc2F)c2cc(S(=O)(=O)N3CCOCC3)ccc21 |  | inconclusive: 5.01 µM [falling, single point] |
| O=C(NC(=S)Nc1sc2c(c1C(=O)O)CCCC2)c1ccccc1 |  | inconclusive: 22.4 µM [falling, partial curve] |

Part of the list above, set out differently.
Compound	activity change, negative = inhibition	Potency
O=c1cc(CN2CCN(S(=O)(=O)c3ccccc3[N+](=O)[O-])CC2)nc2sccn12	inconclusive: -2.63%	
CC(C)Cc1nc2sc3c(NCc4ccco4)ncnc3c2c2c1COC(C)(C)C2	inconclusive: 2.48%	

The list continues:

| Compound | activity change, negative = inhibition | Potency |
| --- | --- | --- |
| Cn1c(=O)c2nc(-c3ccc(Cl)cc3Cl)oc2c2ccccc21 | inconclusive: 17.7% |  |
| Cc1ccc2c(c1)c1ncnc(N3CCOCC3)c1n2C | inconclusive: -10.6% |  |
| CCOC(=O)C1C(=O)NC(N2CCN(c3ccccc3)CC2)=NC1c1ccco1 (stereo not drawn) | inconclusive: -0.786% |  |
| COc1ccc(NC(=O)c2ccc(COCC(F)(F)C(F)F)cc2)cc1OC | inconclusive: -6.32% |  |
| CCCc1cc(N2CCC(C(N)=O)CC2)nc(-c2ccccc2)n1 | inconclusive: -7.6% |  |
| COc1cccc(N/C=C/C(=O)c2ccc(C)cc2)c1 |  | inconclusive: 22.4 µM [falling, single point] |
| O=C(N/N=C/c1cc(Br)c(O)c(Br)c1O)c1cccnc1 | inconclusive: -13% |  |
| COc1ccc(C2=Nn3c(nnc3-c3ccccc3OC)SC2)cc1OC1CCCC1 |  | inconclusive: 16.4 µM [cytotoxic, partial curve] |
| CC1=CCC(COC(=O)Nc2ccccc2)CC1 (stereo not drawn) |  | inconclusive: 22.4 µM [falling, partial curve] |
| CCCCN(C(=O)CSc1nnc(-c2ccc(Cl)cc2)o1)c1c(N)n(CC(C)C)c(=O)[nH]c1=O | inconclusive: -0.757% |  |
| CC(C)Nc1nc(-c2cccnc2)nc(-c2ccccc2)c1C#N | inconclusive: 0.0575% |  |
| CN1CCCC(OC(=O)c2ccc(S(=O)(=O)N(C)C)cc2)C1 (stereo not drawn) | inconclusive: 1.61% |  |
| O=[N+]([O-])c1cccc(-c2ccc(/C=N/NC(=S)NCc3ccco3)o2)c1 | inconclusive: 3.31% |  |
| COc1ccc(-c2oc(/N=C/N3CCCC3)c(C#N)c2-c2ccc(OC)cc2)cc1 | inconclusive: 1.18% |  |
| COc1cccc(/C=N/NC(=O)C(=O)NCc2cccnc2)c1OC | inconclusive: 3.33% |  |
| O=C(CN1CCCCC1)Nc1ccc(S(=O)(=O)N2CCOCC2)cc1 | inactive |  |
| O=C(/C=C/c1cccc([N+](=O)[O-])c1)N1CCN(Cc2ccccc2)CC1 | inconclusive: -9.06% |  |
| Cc1ccc(C)c2[nH]c(=O)c(CN(Cc3ccc4c(c3)OCO4)Cc3nnnn3Cc3ccco3)cc12 | inconclusive: 0.142% |  |
| COC(=O)c1cc(OC)c(OC)cc1NC(=O)c1ccc(C)o1 |  | inconclusive: 0.0116 µM [rising, full curve, poor fit] |
| O=C(NCc1ccco1)c1cnn2c1NC(c1ccccc1)CC2C(F)(F)F (stereo not drawn) | inconclusive: -1.76% |  |
| Cn1c(SCc2ccccc2)nnc1-c1cccs1 | inconclusive: -13.8% |  |
| Cc1c(Cl)c([N+](=O)[O-])nn1CC(=O)NCCCN1CCOCC1 | inconclusive: -9.4% |  |
| COc1ccc(OC)c(-c2c[n+](=O)c3c(n2[O-])CCCC3)c1 | inconclusive: -1.16% |  |
| COC(=O)c1ccccc1NC(=O)NC1CCC(C)CC1 (stereo not drawn) |  | inconclusive: 22.4 µM [falling, partial curve, poor fit] |
| COc1c(C(=O)Nc2c(C)n(C)n(-c3ccccc3)c2=O)ccc2ccccc12 | inconclusive: 0.86% |  |
| CN(C)c1cccc(C(=O)Nc2nc3ccccc3[nH]2)c1 |  | inconclusive: 5.62 µM [falling, partial curve] |

| Compound | activity change, negative = inhibition | Potency |
| --- | --- | --- |
| CN(Cc1ccccc1)C(=O)COc1cc(=O)n(C)c2ccccc12 |  | inconclusive: 11.6 µM [falling, partial curve] |
| CCCCN(C)CC(O)Cn1cc(/C=C/C(=O)c2ccc(C)cc2)c2ccccc21 (stereo not drawn) |  | inconclusive: 22.4 µM [falling, single point] |
| COc1ccc(NC(=O)c2c(NCc3cccs3)sc3c2CCCC3)cc1 |  | inconclusive: 3.16 µM [falling, single point] |
| O=C(C1CC1)N1N=C(c2ccccc2)CC1(O)C(F)(F)F (stereo not drawn) | inactive |  |
| Brc1ccccc1-c1nnc2sc(-c3ccc4c(c3)OCCO4)nn12 |  | inconclusive: 0.461 µM [rising, full curve, poor fit] |
| CCN(CC)C(=O)c1cc2sc3ccccc3c2s1 |  | inconclusive: 12.6 µM [falling, single point] |
| O=C1NC(=O)C2(COC(c3ccccc3Cl)OC2)S1 (stereo not drawn) | inconclusive: 22.1% |  |
| CCOc1ccccc1-c1nc(-c2ccc(NC(=O)Cc3ccccc3OC)cc2)no1 |  | inconclusive: 18.4 µM [falling, single point] |
| N#CCC(=O)Nc1ccc(C(=O)OCC(=O)N=c2sccn2Cc2ccccc2Cl)cc1 | inactive |  |
| CCc1ccc(N2C(=O)Nc3ccccc3C2(O)C(=O)N2CCN(c3ccccn3)CC2)cc1 (stereo not drawn) |  | inconclusive: 35.5 µM [falling, single point] |
| COc1cccc(NC(=O)c2cnc[nH]2)c1 |  | inconclusive: 25.1 µM [falling, single point] |
| COC(=O)c1ccc(C)c(NS(=O)(=O)c2ccc3c(c2)OCCO3)c1 |  | inconclusive: 18.4 µM [falling, partial curve, poor fit] |
| Cc1ccc(CNc2nc3ccccc3n2C)cc1 | inactive |  |
| O=C(COC(=O)Cc1ccc(Cl)cc1)Nc1ccccc1F | inconclusive: 3.18% |  |
| CCN(CCNC(=O)c1ccc(CSc2nc3ccncc3[nH]2)cc1)c1ccccc1 | inconclusive: -10.6% |  |
| Cc1occc1-c1nnc(SCC(=O)Nc2ccc(F)cc2)n1Cc1ccccc1 | inconclusive: 0.827% |  |
| NC(=O)c1ccccc1N/C=C/C(=O)c1cccs1 |  | inconclusive: 29.1 µM [rising, single point] |
| O=C(CSc1nc2ccccc2n1CCc1ccccc1)c1ccc(O)c(O)c1 | inactive |  |
| CC(=O)c1sc(NC(=O)COc2c(C)cc(Cl)cc2C)nc1C |  | inconclusive: 4.47 µM [falling, partial curve, poor fit] |
| Cc1cc(C(=O)NCCN2CCN(c3cccc(Cl)c3)CC2)n(-c2ccccc2)n1 |  | inconclusive: 20.6 µM [falling, single point] |
| Cc1[nH]c2ccccc2c1/C=N/NC(=O)c1ccc(N)cc1 |  | inconclusive: 12.6 µM [falling, single point] |
| Cc1cc(F)ccc1NC(=O)c1cnccn1 | inconclusive: 9.26% |  |
| CCc1ccc2oc(-c3ccc(N)cc3)nc2c1 |  | inconclusive: 6.51 µM [falling, single point] |
| O=C(Nc1ccccc1N1CCOCC1)c1ccc2c(c1)OCCO2 | inconclusive: 1.77% |  |
| COc1cc(NC(=O)CN2C(=O)NC(C)(c3ccc4ccccc4c3)C2=O)c(C)cc1[N+](=O)[O-] (stereo not drawn) | inconclusive: -13.6% |  |
| CCOC(=O)CNC(=O)CSc1ncccc1-c1nc2ccccc2[nH]1 |  | inconclusive: 3.16 µM [falling, full curve] |

Reformatted as comma-separated lines: part of the list above
Compound,"activity change, negative = inhibition",Potency
C=CCSc1nc2ccccc2n2cnnc12,,"inconclusive: 17.8 µM [falling, partial curve, poor fit]"
COc1ccc(/C(C)=N/NC(=O)c2nc(C)cc(C)n2)cc1,inconclusive: -21.1%,
O=C(CSc1ccc([N+](=O)[O-])cc1)Nc1cccc(S(=O)(=O)N2CCOCC2)c1,inactive,
Cc1cc(C(=O)CN2C(=O)C(=O)N(C3CCCC3)C2=O)c(C)n1CCc1ccc(F)cc1,inconclusive: 6.45%,
CC(C)Cc1nc2sc3c(NCc4ccco4)ncnc3c2c2c1COC(C)(C)C2,inconclusive: 2.48%,
CCSc1nc2ccccc2n1CCC(=O)O,inconclusive: 15.2%,
Cn1c(=O)c2nc(-c3ccc(Cl)cc3Cl)oc2c2ccccc21,inconclusive: 17.7%,
COc1ccc(NC(=O)c2ccc(COCC(F)(F)C(F)F)cc2)cc1OC,inconclusive: -6.32%,
COc1cccc(N/C=C/C(=O)c2ccc(C)cc2)c1,,"inconclusive: 22.4 µM [falling, single point]"
O=C(CN1CCCCC1)Nc1ccc(S(=O)(=O)N2CCOCC2)cc1,inactive,
O=C(/C=C/c1cccc([N+](=O)[O-])c1)N1CCN(Cc2ccccc2)CC1,inconclusive: -9.06%,
Cn1c(SCc2ccccc2)nnc1-c1cccs1,inconclusive: -13.8%,
Cc1c(Cl)c([N+](=O)[O-])nn1CC(=O)NCCCN1CCOCC1,inconclusive: -9.4%,
COc1ccc(OC)c(-c2c[n+](=O)c3c(n2[O-])CCCC3)c1,inconclusive: -1.16%,
CCN(CC)C(=O)c1cc2sc3ccccc3c2s1,,"inconclusive: 12.6 µM [falling, single point]"
O=C(COC(=O)Cc1ccc(Cl)cc1)Nc1ccccc1F,inconclusive: 3.18%,
CCN(CCNC(=O)c1ccc(CSc2nc3ccncc3[nH]2)cc1)c1ccccc1,inconclusive: -10.6%,
Cc1[nH]c2ccccc2c1/C=N/NC(=O)c1ccc(N)cc1,,"inconclusive: 12.6 µM [falling, single point]"
